# Measured values as given in paper PMC7862700.
# This is a selection; strong and weak results do not stand in their true shares. At the low end of the ranking, values are background and their order means little.
# Biological target: T1, ELK3 (UniProt P41970)
# T1 sequence: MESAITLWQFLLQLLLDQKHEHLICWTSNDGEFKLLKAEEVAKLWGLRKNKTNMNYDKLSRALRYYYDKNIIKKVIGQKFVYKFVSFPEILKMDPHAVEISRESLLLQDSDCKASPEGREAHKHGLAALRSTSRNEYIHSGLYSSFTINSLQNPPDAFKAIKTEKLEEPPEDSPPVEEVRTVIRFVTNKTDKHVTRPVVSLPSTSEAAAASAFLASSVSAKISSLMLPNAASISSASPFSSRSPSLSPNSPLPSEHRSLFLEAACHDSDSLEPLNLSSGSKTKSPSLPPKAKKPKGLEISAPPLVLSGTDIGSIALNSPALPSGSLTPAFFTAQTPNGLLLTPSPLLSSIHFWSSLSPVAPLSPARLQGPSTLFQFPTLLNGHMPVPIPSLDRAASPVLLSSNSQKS
# Assay: DAPPL (digital affinity profiling via proximity ligation, sequencing)
# Details: 10 mM Tris-HCl pH 7.5, 50 mM NaCl, 1 mM DTT, 4% glycerol, room temperature, 30 min; GST-TFs on glutathione beads, 16-mer random dsDNA library, 0.1% …; high values mean tight binding; double strand, one strand shown; scale: fold enrichment (6-mer frequency, TF over GST control)
row,Sequence,binding signal
1,ATTAGG,1.1
2,TGACTA,1.14
3,ACACTA,1.1
4,CGCGAT,1.07
5,TTCACA,1.26
6,ACACCC,1.08
7,CCGCTG,0.951
8,GGTGTT,0.979
9,GGTCTA,1.24
10,ATTAAG,0.993
11,TCACCT,1.22
12,GATAAT,1.12
13,AATTTG,1.12
14,TCTAAC,1.16
15,TCACCG,1.13
16,GTCCCA,1.18
17,ATGCCA,0.989
18,AACCGC,1.07
19,CAATAG,1.13
20,TAACGC,1.23

row,Sequence,binding signal
1,GGCTAC,1.19
2,CCTTCC,2.47
3,TAACTG,1.26
4,CTCAAG,1.32
5,ATAACG,0.957
6,TTCTGA,1.38
7,TTTGGG,1.29
8,GGATCT,0.964
9,CGATGC,0.934
10,TGTTCC,1.5
11,TTTCCG,4.01
12,GGACCT,1.37
13,CTTTGT,1.29
14,GGTACA,0.899
15,TCGATG,0.956
16,ACACGG,0.926
17,CCAAAT,0.995
18,AACACC,0.94
19,TCTTCC,2.79

# Biological target: T2, SPIC (UniProt Q8N5J4)
# T2 sequence: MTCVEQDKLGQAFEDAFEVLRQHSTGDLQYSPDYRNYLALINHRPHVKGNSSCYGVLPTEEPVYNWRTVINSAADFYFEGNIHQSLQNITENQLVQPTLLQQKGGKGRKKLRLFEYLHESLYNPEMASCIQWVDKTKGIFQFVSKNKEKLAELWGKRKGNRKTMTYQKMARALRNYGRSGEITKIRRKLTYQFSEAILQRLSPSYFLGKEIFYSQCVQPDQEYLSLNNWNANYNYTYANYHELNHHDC
# Assay: as above
# Details: 10 mM Tris-HCl pH 7.5, 50 mM NaCl, 1 mM DTT, 4% glycerol, room temperature, 30 min; GST-TFs on glutathione beads, 16-mer random dsDNA library, 0.1% …; high values mean tight binding; double strand, one strand shown; scale: fold enrichment (6-mer frequency, TF over GST control)
row,Sequence,binding signal
1,ATTAGG,0.984
2,TGACTA,0.936
3,ACACTA,1.14
4,CGCGAT,0.896
5,TTCACA,1.08
6,ACACCC,1.19
7,CCGCTG,1.08
8,GGTGTT,1.09
9,GGTCTA,1.09
10,ATTAAG,1.04
11,TCACCT,1.31
12,GATAAT,1.27
13,AATTTG,1.41
14,TCTAAC,1.07
15,TCACCG,0.918
16,GTCCCA,1.12
17,ATGCCA,0.863
18,AACCGC,0.993
19,CAATAG,1.07
20,TAACGC,1.05

row,Sequence,binding signal
1,GGCTAC,0.933
2,CCTTCC,2.36
3,TAACTG,1.42
4,CTCAAG,1.1
5,ATAACG,0.923
6,TTCTGA,1.03
7,TTTGGG,1.16
8,GGATCT,1.01
9,CGATGC,0.985
10,TGTTCC,2
11,TTTCCG,3.86
12,GGACCT,1.46
13,CTTTGT,1.21
14,GGTACA,0.979
15,TCGATG,0.995
16,ACACGG,1.06
17,CCAAAT,0.865
18,AACACC,1.02
19,TCTTCC,2.31
